Reference: patent US20230054375A1 (UAB RESEARCH FOUNDATION, published 2023)
These are yes or no findings as the source states them, for the method shown. Some results given as binding are weak or reduced against the parent protein; the word gives no strength.

Amino acid sequences for entries named in this document (tags omitted). Residues count along the entry.
UniProt Q08722, residues 19-141: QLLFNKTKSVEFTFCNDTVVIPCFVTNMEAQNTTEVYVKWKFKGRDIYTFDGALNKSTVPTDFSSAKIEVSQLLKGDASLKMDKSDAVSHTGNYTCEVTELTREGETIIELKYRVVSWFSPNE

Legend:
[1] = target: HEK293 expressed mFc fused CD47 peptide (Gln19-Glu141) (UniProt Q08722); experiment: ELISA screening of hybridoma clones on coated HEK293 expressed CD47 peptide (Gln19-Glu141), read at OD405, mean±SEM, n=3
[2] = target: HEK293 expressed mFc fused CD47 peptide (Gln19-Glu141) (UniProt Q08722); experiment: ELISA screening of hybridoma clones, peptide coated

binding [1]: binds
binding [2]: binds
B1: anti-CD47 monoclonal antibody (IgG2b/kappa) (antibody, V domains shown)
VH: EVQLVESGGGLVQPKGSLKLSCAASGFTFNTYAMNWVRQAPGKGLEWIARIRSKSNNYATYYADSMKDRFTISRDDSQSMLYLQMNNLKTEDTAMYYCVRPAQGAMDYWGHGTSVTVSS
VL: DIVLTQSPATLSVTPGDSVSLSCRASQRISNNLHWYQQKSHESPRLLIKYSSQSISGIPSRFSGSGSGTDFTLSINSVETEDFGMYFCQQSNAWPYTFGGGTKLEIRR
notes: The antibody was labelled with Alexa Fluor 647 for flow cytometry and confocal imaging; also called anti-CD47 mAb; CD47 mAb
